We go through 1 sequence from paper PMC6683498, “The conserved actinobacterial transcriptional regulator FtsR controls expression of ftsZ and further target genes and influences growth and cell division in Corynebacterium glutamicum”.

Construct, isoform or probe ends are uncertain for at least one entry. Weaker means in comparison with the reference protein, sequence or condition of that experiment. Tags and fusion partners may be left off the protein sequences shown.

The target in this series is T1, FtsR-Strep (Corynebacterium glutamicum ATCC13032) (UniProt Q8NQJ2).
T1 sequence (looked up, limits assumed): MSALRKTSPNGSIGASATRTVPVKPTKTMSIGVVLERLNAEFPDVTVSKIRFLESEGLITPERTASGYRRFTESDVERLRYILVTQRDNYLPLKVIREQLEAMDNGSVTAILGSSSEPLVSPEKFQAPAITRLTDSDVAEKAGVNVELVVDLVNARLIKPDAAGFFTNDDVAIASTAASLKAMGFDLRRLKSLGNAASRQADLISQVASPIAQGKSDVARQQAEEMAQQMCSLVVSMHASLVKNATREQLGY
As to the kind of experiment: EMSA. The following applies: 1 uM DNA, incomplete shift even at 8.5-fold molar excess of dimer; EMSA: 10 mM Tris-HCl pH 7.5, 30 mM NaCl, 1.5 mM Na2EDTA, room temperature, 30 min; 15% native PAGE in 1x TBE (competition EMSA: 10% gel); recombinant protein; protein details: C-terminal AS linker + Strep-tag II (WSHPQFEK). (In EMSA bound probe runs differently from free probe, usually more slowly.)

“GAAGCCACATGACATATGTCATGAAAATTA (double strand) [cg1081 promoter 30-bp control oligo]”: the binding result is on record as “binds more weakly”.
